Where two headings read alike, the source gives them in different places.
Tests used:
[1] = Method: The prophylactic study which lasted 90 days used 6 rats per group. […] The 6 groups were as follows: • 1. Normal Control • 2. High Fat Diet (HFD) 1 ml 1/d+Normal Diet • 3. High Fat Diet (HFD)+Normal Diet+the composition of the present invention (OD) • 4, High Fat Diet (HFD)+Normal Diet+the composition of the present invention (BD) • 5. […] The body weights were recorded to the nearest gram (g) with proper tare to 0.0000 with the subject at steady state on the weighing machine. The same weighing machine was used for all the subjects. The machine was tested with a known set of weights for any error.
The long-term rise in the electrolyte such as Na and are associated with blood pressure disorders impacting the heart.

[2] = Therapeutic study: organ body weight after necropsy; type: in vivo, Wistar strain albino rats
From the text: (§1) The 6 groups were as follows: • 1. Normal Control • 2.

[3] = test system: Lipid peroxidation (Plasma & Liver); assay: Therapeutic study: lipid peroxidation (plasma and liver LPO); type: in vivo, Wistar strain albino rats; settings: for MDA Liver / MDA Plasma: after necropsy
Method: (§2) 1.5-2 ml blood sample was taken from retino-orbital chamber in vials for biochemical estimations at every 15 days. Investigations performed included detailed Total Cholesterol—TC (mg/dl), Triglyceride—TG (mg/dl), High Density Lipoprotein—HDL-C (mg/dl), Low Density Lipoprotein—LDL-C (mg/dl), Very Low-Density Lipoprotein—VLDL (mg/dl), WBC (10^3/u1), RBC (10^6/u1), Hb (g/dl), PCV (%), Reticulocyte (%), Platelet count 10^5/mm^3, Clotting time (Sec), Neutrophils, Lymphocyte, Monocyte and Eosinophil. The estimations were done with Ecoline kits from Erba Mannheim, ERBA diagnostics Mannheml, Germany using Semi Autoanalyzer RX50 of MicroLabs Instruments and COUNCELL21 of Tulip Diagnostics Pvt. Ltd. Lipid peroxidation (Plasma & Liver), HMG Co-Reductase, Creatine phosphokinase (CPK), Lactate dehydrogenase (LDH), SGOT and SGPT were estimated at the end of both the studies using the kits.

[4] = Prophylactic study: organ weights after sacrifice; type: in vivo, Wistar strain albino rats; settings: HFD+normal diet
From the text: as §1

[5] = Prophylactic study: HbA1c / blood glucose level; type: in vivo, Wistar strain albino rats; settings: HFD+normal diet, after sacrifice
From the text: as §1

[6] = test system: Creatine phosphokinase (CPK), Lactate dehydrogenase (LDH), SGOT and SGPT; assay: Therapeutic study: CPK, LDH, SGOT, SGPT; type: in vivo, Wistar strain albino rats; settings: HFD Discontinued
Method: as §2

[7] = Therapeutic study: hematological parameters; type: in vivo, Wistar strain albino rats; settings: HFD continued
Method: (§3) Wistar strain albino rats of body weight ranging from 190-225 g were selected for the present study. The temperature and humidity were kept at optimum (22+2° C.; 40-70% and animals were exposed to natural chronological day night cycles. The experiments were carried out in conformity with the Institutional Animal Ethics Committee.
as §1, §2

[8] = Prophylactic study: hematological parameters; type: in vivo, Wistar strain albino rats; settings: HFD+normal diet
Method: as §3, §1, §2

[9] = Therapeutic study (60 days treatment after 90 days HFD): body weight; type: in vivo, Wistar strain albino rats; settings: HFD discontinued, day 15; in g
Method: as §3, §1

[10] = test system: Lipid peroxidation (Plasma & Liver); assay: Prophylactic study: lipid peroxidation (MDA, plasma and liver); type: in vivo, Wistar strain albino rats; settings: HFD+normal diet, after sacrifice
Method: as §2

CC(C)c1c(C(=O)Nc2ccccc2)c(-c2ccccc2)c(-c2ccc(F)cc2)n1CC[C@@H](O)C[C@@H](O)CC(=O)O [Statin, Atorvastatin]
HbA1c ([1]; HFD Continued): 3.67 ± 0.18
HbA1c ([1]; HFD Discontinued): 4.15 ± 0.16
vitamin D value in the plasma ([1]; rat, in vivo): 35 IU
Brain (organ body weight after necropsy) ([2]; HFD Continued): 3.51 ± 0.12 g/100 g bd. wt
Heart (organ body weight after necropsy) ([2]; HFD Continued): 1.34 ± 0.02 g/100 g bd. wt
Brain (organ body weight after necropsy) ([2]; HFD Discontinued): 3.37 ± 0.05 g/100 g bd. wt
Heart (organ body weight after necropsy) ([2]; HFD Discontinued): 1.32 ± 0.05 g/100 g bd. wt
MDA Liver ([3]; HFD Continued): 84.53 ± 5.09 nmol/g tissue
MDA Plasma ([3]; HFD Continued): 35.84 ± 0.97 nmol/mL
MDA Liver ([3]; HFD Discontinued): 82.65 ± 3.76 nmol/g tissue
MDA Plasma ([3]; HFD Discontinued): 35.80 ± 1.58 nmol/mL
Liver LPO reduced ([3]; therapeutic study): 11%
Brain weight [4]: 1.30 ± 0.05 g/100 g bd · wt
HbA1c [5]: 3.72 ± 0.16
Creatine phosphokinase [6]: 1.32 ± 0.08
WBC ([7]; day 0): 8.45 ± 0.39 103/μl
Reticulocyte ([7]; day 15): 1.34 ± 0.03%
Reticulocyte ([7]; day 60): 1.32 ± 0.02%
Hb ([8]; day 15): 09.44 ± 1.19 g/dL
Hb ([8]; day 30): 11.9 ± 1.10 g/dL
PCV ([8]; day 30): 41.40 ± 1.15%
PCV ([8]; day 75): 41.40 ± 0.37%
PCV ([8]; day 90): 41.45 ± 0.29%
Average Body Weight [9]: 268.00 ± 8.89
MDA Liver [10]: 80.60 ± 0.90 nmol/g tissue
MDA Plasma [10]: 35.10 ± 1.55 nmol/mL
